{"sequences": {"note": "Chains of the proteins cited; added tags and fusions are not shown. Lines headed by an entry give the natural chain unless they say otherwise; changes in a name come on top.", "UniProt P18054": "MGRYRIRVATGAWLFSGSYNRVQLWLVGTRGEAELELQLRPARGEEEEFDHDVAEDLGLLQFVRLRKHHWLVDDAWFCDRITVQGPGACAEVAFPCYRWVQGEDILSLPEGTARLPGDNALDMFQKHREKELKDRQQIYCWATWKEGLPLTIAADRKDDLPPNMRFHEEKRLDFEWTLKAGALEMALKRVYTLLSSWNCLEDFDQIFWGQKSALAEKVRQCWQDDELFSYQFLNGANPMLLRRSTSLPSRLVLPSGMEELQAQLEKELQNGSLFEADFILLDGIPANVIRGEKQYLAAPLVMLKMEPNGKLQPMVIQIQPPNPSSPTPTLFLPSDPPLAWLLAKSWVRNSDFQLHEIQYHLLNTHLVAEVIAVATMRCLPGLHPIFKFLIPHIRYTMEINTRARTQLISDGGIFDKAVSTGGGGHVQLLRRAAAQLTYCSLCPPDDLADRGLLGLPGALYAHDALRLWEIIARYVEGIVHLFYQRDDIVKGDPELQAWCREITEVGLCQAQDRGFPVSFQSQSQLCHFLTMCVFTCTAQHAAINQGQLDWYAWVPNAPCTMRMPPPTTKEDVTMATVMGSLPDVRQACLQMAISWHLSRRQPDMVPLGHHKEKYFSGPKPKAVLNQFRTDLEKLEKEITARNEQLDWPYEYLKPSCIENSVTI"}, "source": "PubChem BioAssay AID1671190", "about": "(National Center for Advancing Translational Sciences (NCATS), 2021)", "note": "“And” between values parts separate entries of the source, which are not always exact repeats. Identical values can stand only once. In all, about 580,000 compounds went through this assay and about 6,100 (1.1%) were called active. The shares of active, inactive and inconclusive entries below differ from those in the screen. Calls follow the shape of the dose curve; as a rule, active = well fitted inhibition curve with a large enough effect; inconclusive = small, poorly fitted or top-dose-only effect, or another doubt; inactive = no such curve, though single readings can be large or run the other way. Where the call is inconclusive, the potency comes from a doubtful curve fit. % is scaled to controls: 0 for no effect and ±100 for the full control effect; potency is read from the fitted curve at half-maximal effect.", "data": [{"target": "Polyunsaturated fatty acid lipoxygenase ALOX12 (Homo sapiens) (UniProt P18054)", "assay": "Primary qHTS assay for inhibitors of human arachidonate 12S-lipoxygenase (ALOX12): Round 2", "settings": "purified 12hLO, xylenol orange hydroperoxide absorbance; activity change, negative = inhibition: at 108 µM (top of the series) unless noted", "how_it_was_run": "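Purified human 12hLO at 150 nM in 25 mM Hepes, 0.01% Triton X-100, pH 7.0, preincubated 15 min at room temperature with compound. Reaction started with 40 uM arachidonic acid, 30 min at room temperature. Hydroperoxide measured by Fe-xylenol orange, 573/405 nm absorbance ratio.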", "values": [{"smiles": "CCN(CC)c1ccc(C(=O)NNC(=O)C2CSC3(C)CCC(=O)N23)cc1", "note": "(stereo not drawn)", "activity change, negative = inhibition": "inactive: 8.53%"}, {"smiles": "O=C(CSCc1ccc(Cl)cc1)N/N=C/c1ccco1", "Potency": "inconclusive: 44.7 µM [inhibitor, partial curve, poor fit]"}, {"smiles": "Cc1ccc(C)c(Oc2ccc(CNC(=O)c3nccnc3N)cn2)c1", "activity change, negative = inhibition": "inactive: -2.04%"}, {"smiles": "Cc1c(O)ccc2c(CN(C)CC(=O)Nc3cccc4ccccc34)cc(=O)oc12", "Potency": "inconclusive: 50.1 µM [inhibitor, partial curve, poor fit]"}, {"smiles": "COc1ccc(OC)c(NC(=O)COC(=O)c2ccc(S(=O)(=O)N3CCCCC3)cc2)c1", "activity change, negative = inhibition": "inactive: 1.31%"}, {"smiles": "COCCn1cnnc1SCC(=O)c1cc(F)ccc1F", "Potency": "inconclusive: 7.08 µM [inhibitor, full curve, poor fit]"}, {"smiles": "Cc1ccc(CC(=O)NCC(c2ccco2)N(C)C)cc1C", "note": "(stereo not drawn)", "activity change, negative = inhibition": "inactive: -8.46%"}, {"smiles": "CC(C)(C)c1ccc(C(=O)N2CCC2(C)C(=O)Nc2cnc3ccccc3c2)cc1", "note": "(stereo not drawn)", "Potency": "inconclusive: 63.1 µM [inhibitor, partial curve, poor fit]"}, {"smiles": "CN1CCN([C@@H]2[C@H](O)[C@H](CO)O[C@@H]2CNC(=O)c2ccccc2)CC1", "Potency": "inconclusive: 28.2 µM [inhibitor, full curve]"}, {"smiles": "COc1cccc(-c2nc(-c3ccccc3)c(-c3ccccc3)[nH]2)c1OCC(=O)O", "Potency": "inconclusive: 35.5 µM [inhibitor, partial curve, poor fit]"}, {"smiles": "O=C(NNC(=S)NC(=O)c1cccc([N+](=O)[O-])c1)c1ccc(Br)cc1", "Potency": "active: 39.8 µM"}, {"smiles": "CC(CCN1CCC(C(O)(c2ccccc2)c2ccccc2)CC1)Oc1cccc(Br)c1", "note": "(stereo not drawn)", "Potency": "inconclusive: 50.1 µM [inhibitor, partial curve, poor fit]"}, {"smiles": "COc1ccc(CCC(=O)N2CC3CC(C2)[C@H]2CCCC(=O)N2C3)cc1", "note": "(stereo partly drawn)", "activity change, negative = inhibition": "inactive: 10.3%"}, {"smiles": "COc1ccc(Nc2nccc3[nH]c(-c4cccc(F)c4)cc23)cc1OC", "Potency": "inconclusive: 44.7 µM [inhibitor, partial curve, poor fit]"}, {"smiles": "Cc1ccc(C(=O)Nc2ccccc2N2CCCC2)s1", "Potency": "inconclusive: 100 µM [inhibitor, single point]"}, {"smiles": "Cc1ccc(C(=O)CNc2ccc(Br)cc2)cc1", "Potency": "inconclusive: 44.7 µM [inhibitor, partial curve, poor fit]"}, {"smiles": "O=C(C1CC=CC1)N1CCc2nn(Cc3ccccc3)c(=O)n2CC1", "activity change, negative = inhibition": "inactive: 36.6%"}, {"smiles": "CCOC(=O)C1=C(c2ccccc2)c2ccc(OC)cc2N(S(=O)(=O)C(F)(F)F)C1C(=O)OCC", "note": "(stereo not drawn)", "Potency": "inconclusive: 44.7 µM [inhibitor, partial curve, poor fit]"}, {"smiles": "CCCCn1c(N)c(N(CC(C)C)C(=O)c2cc3c(s2)CCCCC3)c(=O)[nH]c1=O", "Potency": "inconclusive: 112 µM [inhibitor, single point]"}, {"smiles": "Cc1ccc2c(c1C)NC(C)CC2C", "note": "(stereo not drawn)", "Potency": "active: 4.47 µM and inconclusive: 3.98 µM [inhibitor, full curve, poor fit]"}, {"smiles": "Cc1cc2c(cc3c(SCC(=O)Nc4ccc(Cl)cc4F)nncn32)o1", "Potency": "inconclusive: 44.7 µM [inhibitor, partial curve, poor fit]"}, {"smiles": "CCOC(=O)c1cccc(NC(=O)NC(C)c2c(-n3cccc3)sc3c2CCN(C)C3)c1", "note": "(stereo not drawn)", "Potency": "inconclusive: 56.2 µM [inhibitor, partial curve, poor fit]"}, {"smiles": "Cc1c2oc3c(C)ccc(C(=O)N[C@@H]4C(=O)N[C@H](C(C)C)C(=O)N5CCC[C@H]5C(=O)N(C)CC(=O)N(C)[C@@H](C(C)C)C(=O)O[C@@H]4C)c3nc-2c(C(=O)N[C@@H]2C(=O)N[C@H](C(C)C)C(=O)N3CCC[C@H]3C(=O)N(C)CC(=O)N(C)[C@@H](C(C)C)C(=O)O[C@@H]2C)c(N)c1=O", "activity change, negative = inhibition": "inactive: -3.26% [at 22.9 µM]"}, {"smiles": "O=C(NNS(=O)(=O)c1ccccc1[N+](=O)[O-])c1cccc(Br)c1", "Potency": "inconclusive: 7.94 µM [inhibitor, partial curve, poor fit]"}, {"smiles": "COc1ccc(CNC(=O)c2cc3n(n2)CC(c2ccc(Cl)cc2)OC3)c(OC)c1", "note": "(stereo not drawn)", "Potency": "inconclusive: 89.1 µM [inhibitor, partial curve, poor fit]"}, {"smiles": "Nc1nccnc1C(=O)NCc1ccc(C(F)(F)F)cc1", "Potency": "inconclusive: 35.5 µM [inhibitor, single point]"}, {"smiles": "O=[N+]([O-])c1cccc(NS(=O)(=O)c2ccccc2[N+](=O)[O-])c1", "Potency": "inconclusive: 141 µM [inhibitor, partial curve, poor fit]"}, {"smiles": "O=C(Nc1ccccc1)c1cccnc1N1CCOCC1", "activity change, negative = inhibition": "inactive: -55.3%"}, {"smiles": "Cc1cccc(CNC(=O)CCCN2C(=O)CCn3nc(-c4cccn4C)cc32)c1", "Potency": "inconclusive: 44.7 µM [inhibitor, partial curve, poor fit]"}, {"smiles": "COCCCn1c(=S)[nH]c2ccc(N3CCOCC3)cc2c1=O", "Potency": "inconclusive: 12.6 µM [inhibitor, full curve, poor fit]"}, {"smiles": "CCc1ccccc1NC1Nc2cc(C)nn2S1", "note": "(stereo not drawn)", "Potency": "inconclusive: 44.7 µM [inhibitor, partial curve, poor fit]"}, {"smiles": "Cc1noc(C)c1COc1cccc(C(=O)N[C@@H](Cc2ccccc2)c2nc3ccccc3[nH]2)c1", "Potency": "inconclusive: 35.5 µM [inhibitor, single point]"}, {"smiles": "Clc1ccc(-c2noc(-c3cccnc3NCc3ccco3)n2)cc1", "Potency": "inconclusive: 63.1 µM [inhibitor, partial curve, poor fit]"}, {"smiles": "COc1ccc(CN(C)C(=O)c2cc(S(=O)(=O)N3CCOCC3)ccc2N2CCCC2)cc1", "Potency": "inconclusive: 56.2 µM [inhibitor, partial curve, poor fit]"}, {"smiles": "CCOC(=O)c1c(N/N=C/c2cccnc2)n[nH]c1C", "activity change, negative = inhibition": "inactive: 0%"}, {"smiles": "COc1ccc(NC(=O)N[C@H]2CO[C@H]3[C@@H]2OC[C@H]3OC(=O)Nc2cccc(C(C)=O)c2)cc1", "Potency": "inconclusive: 28.2 µM [inhibitor, full curve, poor fit]"}, {"smiles": "Fc1ccccc1Nc1nc(N2CCOCC2)nc(N2CCOCC2)n1", "activity change, negative = inhibition": "inactive: -10.8%"}, {"smiles": "NC(CC(=O)O)C(F)(F)F", "note": "(stereo not drawn)", "Potency": "inconclusive: 4.47 µM [inhibitor, full curve, poor fit]"}]}]}
